Results taken from article PMC7862700.
The list shows a part of the results, in another mix than the full data. At the low end of the ranking, values are background and their order means little.

Biological target: T1, FEV (UniProt Q99581)
T1 sequence: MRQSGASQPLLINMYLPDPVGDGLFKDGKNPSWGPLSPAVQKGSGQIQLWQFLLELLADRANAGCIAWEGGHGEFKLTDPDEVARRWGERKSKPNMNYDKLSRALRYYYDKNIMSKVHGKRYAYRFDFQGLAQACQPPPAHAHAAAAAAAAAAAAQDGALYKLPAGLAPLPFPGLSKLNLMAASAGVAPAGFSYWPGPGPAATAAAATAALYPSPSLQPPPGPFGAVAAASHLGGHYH
Assay: DAPPL (digital affinity profiling via proximity ligation, sequencing)
Settings: 10 mM Tris-HCl pH 7.5, 50 mM NaCl, 1 mM DTT, 4% glycerol, room temperature, 30 min; GST-TFs on glutathione beads, 16-mer random dsDNA library, 0.1% …; high values mean tight binding; double strand, one strand shown; scale: fold enrichment (6-mer frequency, TF over GST control)

Sequence	binding signal
GATGGC	1.33
CTCCTT	1.75
AAATCC	2.56
TACGAA	1.29
ATGAGC	1.24
CTTTTG	1.3
TTCAAG	1.2
TGACTC	1.36
TGGAAA	1.03
ACTGCT	1.48
TCCCGC	1.46
ATTATT	1.15
ATCTAC	1.33
TCTCGC	1.64
ATTAAT	1.16
TAAAAT	1.14
AAAAGG	1.06
ATACTG	1.04
ATCTCT	1.29
TACTCT	1.33

Single values from the results shown.
In binding signal, ACTGCT is listed with 1.48
In binding signal, ATACTG is listed with 1.04

Later entries.

Sequence	binding signal
CCTATG	1.17
GGCTCC	1.35
TTGTAC	1.52
AATTCA	1.24
CTTACG	1.06
TTACAC	1.24
AATGAT	1.18
TCCCCA	1.33
GCCTTT	1.41
TCCTAT	1.41
AATCGC	1.08
TCCGAC	1.68
CCTGGT	1.25
ATTACG	1.16
AATAAC	1.25
TAGTAA	0.946
AAAACA	1.34
ATCGCC	1.24
ACCGAT	1.06
